Literature values, collected in patent US20190256819A1, “PROCESS FOR IMPROVING THE DISSOLUTION BEHAVIOUR OF COMPONENTS IN AQUEOUS SOLUTIONS” (Merck Patent GmbH, priority 2016, published 2019).
Some results were stated once for a whole list of compounds, not compound by compound.

Details: stated as typical; cited from earlier work

| Compound | solubility in pure water |
| --- | --- |
| CC(C)C[C@H](N)C(=O)O [L-leucine] | more than 10 g/l |
| N[C@@H](Cc1ccccc1)C(=O)O [phenylalanine] | more than 10 g/l |
